# Data as given in PubChem BioAssay AID504786 (Drosophila RNAi Screening Center, 2011).
# Screen: 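Fly genes required for HIF-dependent transcription when hypoxia is mimicked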 (primary screen)
# Cells: Drosophila S2 cells with a stable HIF luciferase reporter
# Reagent: long dsRNA against Drosophila genes, about 0.2 µg dsRNA per well of a 384-well plate
# Time to read-out: three days of knock-down, then 20 h of DFO before reading
# Conditions: desferrioxamine (DFO) at 100 µM, an iron chelator that mimics hypoxia, for 20 h
# Read-out: 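HIF reporter luminescence in cells given 100 µM DFO for 20 h, using the mouse ldh-a hypoxia-response element, scored as per-plate z-scores; higher means greater loss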
# Direction: z-score: higher = stronger loss of HIF reporter signal
# The deposit covers about 21,000 reagents; this is a random part of those that have a named target and a result. 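Primary screen; positive scores mean lost reporter signal, so the sign may be inverted from the usual convention.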 The numbers tell different reagents against one gene apart. A plus sign joins genes that one reagent is predicted to hit. Reagent sequences are not shown.
target,dsRNA no.,"z-score, replicate 1","z-score, replicate 2"
ArfGAP3,1,-0.4,-1
dhd,1,-0.3,-0.2
Cap-G,1,-0.4,-0.2
Cap-G,2,-0.4,-0.2
CG13622,1,-0.3,-0.3
Prp39,1,-0.2,0
corolla,1,-0.3,-0.2
CG11191,1,-0.4,-0.6
Rap2l,1,0.5,0.4
CG14657,1,-0.4,-0.5
CG14657,2,-0.4,-0.1
CG15773,1,-0.3,-0.4
Rint1,1,-0.5,-1.1
Unc50,1,-0.5,0
Kdm4B,1,-0.1,-0.1
CG32945,1,-0.1,0
Alg3,1,-0.3,-0.1
Rab9D + Rab9Fa + Rab9E,1,-0.3,-1
Pten,1,-0.4,-0.4
lin-28,1,0.4,0.1
CG12607,1,-0.3,-0.2
Cdk5alpha,1,0.5,0.5
pbl,1,-0.3,0.8
Ugt36F1,1,-0.3,-0.3
side-IV,1,-0.1,0.4
M1BP,1,1.9,2
DopEcR,1,-0.3,-0.5
Efr,1,-0.2,0.1
CR42532,1,-0.3,-0.3
Jhbp13,1,-0.2,-0.3
CG12522,1,-0.1,-0.1
erm,1,-0.2,-0.4
Best1,1,-0.3,-0.7
Pur-alpha,1,-0.3,-0.6
Ugt37A1,1,-0.3,-0.3
Lsm12a,1,0.1,0.4
CG8860,1,0,1.8
CG34283,1,-0.4,-0.5
CG14506,1,-0.4,0.2
CG8006,1,-0.1,-0.2
Actn3,1,-0.4,-0.5
CG31109,1,-0.4,-0.9
CG12860,1,-0.3,-0.5
CD98hc,1,-0.1,-0.9
CG15475,1,0,-0.4
CG10317,1,-0.2,0
AP-1sigma,1,-0.3,0
CG13502,1,-0.3,-0.3
clu,1,0,-0.2
Ucp4A,1,-0.3,-0.5
CG17029,1,-0.3,0.5
Or67d,1,0.5,0.4
Trs33,1,-0.6,-0.8
Mtk,1,-0.5,-0.4
ebi,1,-0.3,-0.6
TTLL3A,1,-0.2,0.2

6 consecutive reagents already listed, quoted:
target,dsRNA no.,"z-score, replicate 1","z-score, replicate 2"
Prp39,1,-0.2,0
corolla,1,-0.3,-0.2
CG11191,1,-0.4,-0.6
Rap2l,1,0.5,0.4
CG14657,1,-0.4,-0.5
CG14657,2,-0.4,-0.1
